This sample is rich in variants without activity.
B1: tRNA (parent)
chain: GUUCCGUUGGCGUAAUGGUAACGCGUCUCCCUCCUAAGGAGAAGACUGCGGGUUCGAGUCCCGUACGGAACG

Variants of: B1
Assay: yeast fitness relative to wild type (ratio to wild type); higher = fitter; tRNA-Arg(CCU), competitive growth, 37 C, YPD
Outline: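 Changes in genotype frequencies gave Darwinian fitness relative to wild type. Frequencies were read by 100-nucleotide paired-end sequencing of gene amplicons before and after pooled Saccharomyces cerevisiae strains, carrying tRNA-Arg(CCU) gene variants at the native locus, were competed in YPD at 37°C for 24 hours in six replicates. A genotype was kept only with ≥ 100 starting reads, and estimates < 0.5 were set to 0.5.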

Row | Variant | yeast fitness
1 | GUUCCAUUGGCGUAAUGGUAACGCGUCUCCCUCCUAAGGAGAAGACUGCGGGUUCCAGUCCCGUACUGAACG | ≤ 0.5
2 | GUUCCAUAAGCGUCAUGGUAUCGCGUCUCCCUCCUAAGGGGAAGACUGCGGGUUCGAGUCCCGUACGGAACG | ≤ 0.5
3 | GUUCCAUUGGCGUAAUGGCAACGCGUCUUCCUCCUAAGGAGAAGACUCCGGGUUCGAGUCCCGUACGGAACG | ≤ 0.5
4 | GUUCCAUUGGCGUAAUGGUAACGCGUCUCCCUCCUAAGGAGAAGACUGCGGGUUCGAGACCGGUACGGAACG | ≤ 0.5
5 | GUUCCCUUGGCGUCAUGGUACCGCGUCUCCCUCCUAAGGAGGAGACUGCGGGUUCGAGUCCCGUACGGAACG | ≤ 0.5
6 | GUUCCCUUGGCGUUAUGGUAACGCGUCUCCCUCCUAAGGAGAAGACUGCGUGUUCGAGUUCUGUCCGGGACG | ≤ 0.5
7 | GUUCCCUUGGCGUAGUGGUAGCGCAUCUCCCUCCUAAGGAGAAGACUGCGGGUUAGAGUCCCGUACGGAACG | ≤ 0.5
8 | GUUCCCUUGGCGUAAUGGUUACGCGUCUCGCUCCUAAGGAGAAGACUGCGGGUUCGAGUCCCGUAUGGAACG | ≤ 0.5
9 | GUUCCCUUGGCGUAAUGGUAACGCGUCUCCCUCCUCAGGAGAAGACUGCGGGUUCGAGUCCCGUCCAGAACG | ≤ 0.5
10 | GUUCCCUUGGCGUAAUGGUAACGCGUCUCCCUCCUAAGGCGAAGACCGCGGAUUCGAAUCCCGUACGGAACG | ≤ 0.5
11 | GUUCCCUUGGCGUAAUGGUAACGCGUCUCCCUCCUAAGGAGAAGCCUGCGGGUUCGAGUCCCGUACGGAACG | 0.614
12 | GUUCCCUUGGCGUAAUGGUAAAGCGUCUCCGUCCUAAGGAGAAGACUGCGGGUUCGAGUCCCGUACGCAACG | ≤ 0.5
13 | GUUCCCUUGGCGUAAUGGUAACGGGCCUCCCUCCUAAGGAGAAGACUGCGGGUUCGAGUCCCGUACGGAACG | ≤ 0.5
14 | GUUCCCUUGGCGUAAUGGUAACGCGUCUGCCUCCUAAGGAGAAGACUGAGGGUUCGAGUCCCGUACGGAACG | ≤ 0.5
15 | GUUCCCUUGGCGUAAUGGUAACGCGUCUCCCUGUUAAGGAGAAGACUGCGGGUUCGAGUCCCGUACGGAACG | ≤ 0.5
16 | GUUCCCUUGGCGUAAUGGUAACGCGUCUCCCUCGUAAAGAGAAGACUGCGGGUUCGAGUCUCGUACGGAACG | ≤ 0.5
17 | GUUCCCUUGGCGUAAUGGUAACGCGUCUCCCUCCUAAGGAGAAGACUGCGGGUUCGAGUCCAGUACGGAACG | 0.798
18 | GUUCCCUUGGCCUAACGGUAGCGCGUCUCCCUCCUAAGGAGAAGACUGCGGGUUCCAGUCCCGUACGGAACG | ≤ 0.5
19 | GUUCCCUUGGCGUAAUAGUAACGCGUCUCCCUCCUUAGGAGAAGAAUGCGGGUUCGAGUCCCGUACGGAACG | ≤ 0.5
20 | GUUCCCUUGGCGUAAUCGUAACGCGUCUCCCGCCUAAGGCGAAGACUGCGGGUUCGAGUCCCGAAGGGAACG | ≤ 0.5
21 | GUUCCCUUGGCGUAAUGGUAACGCCUCUCCCUCCUAUGCAGAAGACUGCGGGUUCGAGUCCCGUACGGAACG | ≤ 0.5
22 | GUUCCCUUGGCGUAAUGGUAACGCGUCUCCCUCCUAAGGAGAAGACUGCGGCUUCGAGUCCCGUACGGAACG | 0.653
23 | GUUCCCUUGGCGUAAUGGUAACGCGUCUCCCUCCUAAGGAGAAGACUGCGGGUUCAAGUGCCGUACGGAACG | ≤ 0.5
24 | GUUCCCUAGGCGUAAUGAUAACGCGUCUCCCUCCUAAGGAGAAGUCUGCGGGCUCGAGUCCCGUACAGCACG | ≤ 0.5
25 | GUUCCCUCGGCGUAAUGGUAACGCGUCUCCCUCCUAAGGAGAUGACUGCGGGUUCGAGUCGAGUACGGAACG | ≤ 0.5

Row | Variant | yeast fitness
26 | GUUCCCUCGGCGUAAUGGUAACGCGUCUCCCUCCUAAGGAGAAGACUGCGGGUUCGAGUACUGUACGGAACG | ≤ 0.5
27 | GUUCCCUCGGCGUAAUGGUAACGCGUCUCCCUCCUAACGAGAAGAAUGCGGGUUCGAGUCCCGUACGGAACG | ≤ 0.5
28 | GUUCCCUUGGCGUAAGGGUAACGCGUCUCCUUCCUAAGGAGAAGACUGCGGGUUCGAGUCCCGUACGGAACG | ≤ 0.5
29 | GUUCCCUUGGCGUAAUGGAAACGCGUCUCCCUCCUAACGAGAAGACUGCGGGUUAGAGUCCCCUACGGAACG | ≤ 0.5
30 | GUUCCCUUGGCGUAAUGGUAACGCGCCUCCCUCCUAAGGAGACGACUGCGGGUUCGGGUCCCGUACGGAACG | ≤ 0.5
31 | GUUCCCUUGGCGUAAUGGUAACGCGUCUCCCACCUAUGGAGAAGACUGCGGGUUCGAGUCCCGUAAGGAACG | ≤ 0.5
32 | GUUCCUUUGGCGUAAUGGUAACGCGUCUCCCUCCUAAGGAGAAGACUGCGGGUUCGAGUCCCGUACGGAACG | 0.918
33 | GUUCCUUUGGGGUAAUGGUAACGCGUCUCCCUCCUAAGGAGAAGACUGCGGGUUCGAGUCCCGUACGGCACG | ≤ 0.5
34 | GUUCCGAUGGCGUUCUGGUAACGCGUCUCCCCCCUAAGGAGAAGAUUGCGCGUUCGAGUCCCGUACGGAACG | ≤ 0.5
35 | GUUCCGAUGGCGUAAUGGUCGCACGUCUCCCUCCUAAGGAGAAGACUGCGGGUUCAAGUCCCGUACGGAACG | ≤ 0.5
36 | GUUCCGAUGGCGUAAUGGUCACGCGUCUUCCCGCUAAGGAGAAGACUGCGGGUUCGAGUCCCGUACGGAACG | ≤ 0.5
37 | GUUCCGAUGGCGUAAUGGUCACGCGACUCCCUCCUAAGGAGAAGACUGCGGGUUCGAGUCCCGUACGGAACG | ≤ 0.5
38 | GUUCCGAUGGCGUAAUGGUGACGCGUCUCCCUCCUAAGGUGAAGACUGCGGGUUCGAGUCCCGUACGGAACG | ≤ 0.5
39 | GUUCCGAUGGCGUAAUGGUGACGCGUCUCCCUCCUAAGGAGAAGACUGCGGGUUCGAGUCCCGUACGGAGCG | ≤ 0.5
40 | GUUCCGAUGGCGUAAUGGUGACGCGUCUCCUUCCCAAGGAGAAGACUGCGGGUUCGCGUCCCGUACCGAACG | ≤ 0.5
41 | GUUCCGAUGGCGUAAUGGUAACGCGUCUCCCUCCUCAGGUGAAGACUGCGGGUUCGAGUCCCGUACGGACCG | ≤ 0.5
42 | GUUCCGAUGGCGUAAUGGUAACGCGUCUCCCUCCUGAGGACAAGACUGCGGGUACGAGUCCCGUACGGAACG | ≤ 0.5
43 | GUUCCGAUGGGGUAAUGGUAACGCGUCUCCCUCCUUAGGAGAAGACUACGGGUACGAGUCCCGUACGGAACG | ≤ 0.5
44 | GUUCCGAUGGUGUAAUCGUAACGCGUCUCGCUCCUACGGAGAAGACUCCGGGUUCGAGUCCCGUACGGAACG | ≤ 0.5
45 | GUUCCGAUGGCGUAAUGGUAAAGCGUCUCUCUCCUAAGGAGAAGACUGCGGGUUCGAGUCCCGUACGGAACG | ≤ 0.5
46 | GUUCCGAUGGCGUAAUGGUAACGCGUCUCGCGCCUAAGGAGAAGACUGCGGGUUCGAGUCCCGUUCGGAACG | ≤ 0.5
47 | GUUCCGAUGGCGUAAUGGUAACGCGUCUCCUUCCUAAGGAGAAGACUGCGGGUUCGAGUCCCGUACGGAACG | 0.683
48 | GUUCCGAUGGCGUAAUGGUAACGCGUCUCCCUACUAAGGAGAAGACUGCGGGUUCGGGUCCCGUACGGAACG | ≤ 0.5
49 | GUUCCGAUCGCGUAAUGGUAACGCGUCUCUCUCGUAAGGAGAAGACUGCGGGUUCGUGUCCCGUAUGGAACG | ≤ 0.5
50 | GUUCCGAUCGCGUAAUCGUAACGCGUCUCCCUCCUAAGGAGAAGACUACGGGUUCGAGUCCUGUACGGAACG | ≤ 0.5

Row | Variant | yeast fitness
51 | GUUCCGAUGACGUAUUGGUAACGCGUCUCCCUCCUAAGGAGAAGACUGCGGGUUCGAGUCCCGUACGGAACG | 0.568
52 | GUUCCGAUGACGUAUUGGUAACGCGUCUCCCUCCUAAGGAGAGGACUGCAGGUUCGAGUCCCGUAUGGAACG | ≤ 0.5
53 | GUUCCGAUGCCGUAAUGGUAAUGCGUCUCCCUCCUAAGGAGAAGACUGCGGGUUCGAGUCUCGUACGGAACG | ≤ 0.5
54 | GUUCCGAUGCCGUAAUGGUAACGCGUCUCGCUCCUUAGGAGAAGACUGCGGGUUCGAGACCCGUACGGAACG | ≤ 0.5
55 | GUUCCGAUGCCGUAAUGGUAACGCGUCUCCCUCCUAAGGAGAAGACUGCGGAUCCGAGUCCCGUACGGAACG | ≤ 0.5
56 | GUUCCGAUGGCGUAACGGUAACGCGUCUCCCUCCUAAGGAGAAGACUGCGGGUUCGAGUCCCGUACGGGACG | ≤ 0.5
57 | GUUCCGAUGGCGUAAUGGGAACGCGUCUCCCUCCUAAGGAGAAGACUGCGGGUUCGAGUCCCGUACGGAGCG | ≤ 0.5
58 | GUUCCGAUGGCGUAAUGGUAACGCGCCUCCCUCCUAAGGGGAUGACUGAGGGUUCGAGUCCCGUACGCAACG | ≤ 0.5
59 | GUUCCGAUGGCGUAAUGGUAACGCGUCUCCCUCCUAAGGAGAAGACUGCGGGUUCGAGAUCCGUACGGAACG | ≤ 0.5
60 | GUUCCGCUGGCGUUAUGGUAACGGGUCUCCCUCCUAAGGAGAGGACUGCGGGUUCGAGUCCCGUACGGAACG | ≤ 0.5
61 | GUUCCGCUGGCGUAAUGGUGACGCGUCUCCCACCUAAGGAGAAGACUGCGGGUUCGAGUCCCGUACGGAACG | ≤ 0.5
62 | GUUCCGCUGGCGUAAUGGUACCGCGUCUCCCUCCUAAGGAGAAGACUGCCGGUUCGAGUCCCCUACGGAACG | ≤ 0.5
63 | GUUCCGCUGGCGUAAUGGUAGCGCGUCUCCCUCCUAAGGACAAGACUGCGGGCUCGAGUCCCGAACGGAACG | ≤ 0.5
64 | GUUCCGCUGGCGUAAUGGUAACGCGUCUCCCUCCUACGGAGAAGACUGCGGGUUCGAGUGCCGUUCGGAUCG | ≤ 0.5
65 | GUUCCGCUGGCGUAAUGGUAACGCGUCUCCCUCCUACGGAGAAGACUGCGGGUUCGAGUGCCAUUCGGACCG | ≤ 0.5
66 | GUUCCGCUGGCGUAAUGGUAACGCGUCUCCCUCCUAGGGAGAAGACUGAGGGUUCGAGUCCCGUACGGAACG | ≤ 0.5
67 | GUUCCGCUGGAGUAAUGGUAACGCGUGUCCCUCCUAAGGAGAAGACUGCGGGUUCGAGUCCCGUACGGAACG | ≤ 0.5
68 | GUUCCGCUGGCGUAAUGGUAACGCGUGUCCCUCCUAAGGAGUAGACUACGGGUUCGAGUCCCGUACGGAACG | ≤ 0.5
69 | GUUCCGCUGGCGUAAUGGUAACGCGUCUCGCUCCUAAGGAGAAGACUGUGGGUUCGAGUCCCGUACGGAACG | ≤ 0.5
70 | GUUCCGCUGGCGUAAUGGUAACGCGUCUCCUUCCUAAGGAGAAGACUGCAGGUUCGAGUCCCGUACGCAACG | ≤ 0.5
71 | GUUCCGCUGGCGUAAUGGUAACGCGUCUCCCUUCUAACGAGAAGAGUGCGGGUUCGAGUCUCGUACGGAACG | ≤ 0.5
72 | GUUCCGCUGGCGUAAUGGUAACGCGUCUCCCUUCUAAGGAGAAGACUGCGGGUUCGAGGCCCGUACGGAACG | ≤ 0.5
73 | GUUCCGCUGGCGUAAUGGUAACGCGUCUCCCUCCUAAGGAGAAGACUGCGGGUUCGAGUCCGGUGCGGAACG | ≤ 0.5
74 | GUUCCGCUGCCGUAAUGGUAACGUGUCUCCCUCCUAAGGAGAAGAUUGCGGGUUCGAGUCCCGUACGGAACG | ≤ 0.5
75 | GUUCCGCUGGCGUAAUGAUAAGGCGUCUCCCUCCUAAGGAGAAGACUGCGGGUUCGAGUCCCGUACGGAACG | 0.586
